Test results published in US20080160018A1.
Results are given in words; binding and its absence hold for the method and conditions named. Some results given as binding are weak or reduced against the parent protein; the word gives no strength.

The chains behind the UniProt entries cited, without tags or fusion partners. Residues count along the entry.
UniProt P12824, residues 24-743: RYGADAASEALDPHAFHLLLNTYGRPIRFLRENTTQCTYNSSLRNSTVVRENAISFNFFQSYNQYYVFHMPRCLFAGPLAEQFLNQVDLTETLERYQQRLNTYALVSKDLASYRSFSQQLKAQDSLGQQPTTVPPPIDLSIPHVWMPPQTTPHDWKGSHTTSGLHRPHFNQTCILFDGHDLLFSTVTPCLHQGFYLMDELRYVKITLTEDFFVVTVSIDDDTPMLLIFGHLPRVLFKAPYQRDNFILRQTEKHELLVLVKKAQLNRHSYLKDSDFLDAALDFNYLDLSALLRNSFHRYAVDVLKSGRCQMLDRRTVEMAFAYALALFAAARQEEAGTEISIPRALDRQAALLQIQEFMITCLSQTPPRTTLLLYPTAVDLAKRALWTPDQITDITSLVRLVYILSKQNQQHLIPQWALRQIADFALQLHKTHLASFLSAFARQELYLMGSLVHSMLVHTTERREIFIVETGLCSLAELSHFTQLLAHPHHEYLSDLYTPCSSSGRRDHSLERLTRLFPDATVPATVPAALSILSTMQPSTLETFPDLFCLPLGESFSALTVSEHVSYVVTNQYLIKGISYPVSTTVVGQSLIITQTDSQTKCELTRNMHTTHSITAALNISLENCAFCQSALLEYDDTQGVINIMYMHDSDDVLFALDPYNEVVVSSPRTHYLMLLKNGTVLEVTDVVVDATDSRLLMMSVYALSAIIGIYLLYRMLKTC

Target: gH glycoprotein of cytomegalovirus on CMV-infected HEL cells (cytomegalovirus (CMV)) (UniProt P12824)
Test: immunostaining of CMV-infected human embryonic lung fibroblasts

binding: binds
B1: chimeric CMV5 antibody (antibody, V domains shown)
VH: EVQLQQSGPELVKPGASMKISCKASVYSFTGYTMNWVKQSHGQNLEWIGLINPYNGGTSYNQKFKGKATLTVDKSSNTAYMELLSLTSADSAVYYCTRRGFRDYSMDYWGQGTSVTVSS
VL: DIVLTQSPATLSVTPGDSVSLSCRASQSISNNLHWYQQKSHESPRLLIKYASQSISGIPSRFSGSGSGTDFTLSVNGVETEDFGMYFCQQSNSWPHTFGGGTKLEIK
